Source: article doi:10.1101/856021
These are yes or no findings as the source states them, for the method shown. A result given as binding can be weak or reduced; the word gives no strength. Sequences can lack the tags named with a protein.

B1: C-terminal fragment of Jil-1 (residues 984-1122), two-hybrid fusion in pACT2 (domain or fragment, UniProt Q9V3I5 984-1122)
chain: EVQADFYGFDENAPPLPLPEEYYSELPLPEEDRQYIPPPPALIPVEPETTFRRPRTRQQRRTESQLVQPVSVATYEDSKASLRVLMQQLPPPGDNVVARIPKRTHRVVRTLPPTFGTTKREENFYGFSKTAISWRKTRA
B2: Full-length Jil-1 (residues 1-1207), two-hybrid fusion in pACT2 (enzyme, UniProt Q9V3I5 1-1207)
chain: MSRLQKQNYEILSGTSTSRLKNHQHPRESESLAYEEPDQMVRNHLNGQLVANGNGKTRKNSNSETMTNGKKSKLNTEGSGSGSGKTLNYNNNNNNNNSISATNGQYTNSSSKTTSASARDYTYRETISPPTPPSPPTTNVADIVCISDAESEDGRDPEREYYDQDMEEDEPNGIEIDESSSSLSKAKSNNAAAAAAAAAAAAAAAASKASSSTTPSYAMPTSNSTPLDLDNEAHQRDLEAVTDLKYYVKLYSDEAVSLNDFKIIRVLGTGAYGRVFLVRKLTRHDAGKLYAMKVLNKITVVQKRKTAEHTKTERVVLEAIQRNPFLVSLHYAFQSSSKLYLVLDFANGGELFTHLYHSENFEESRVRVYIAEVVLALEQLHQLGIIYRDIKLENILLDGEGHIVLSDFGLSKILTAENEYRAHSFCGTLEYMAPEIIRTGPPGHDSAVDWWSVGVLTFELLTGASPFATSDGQVQQSEISRRIQKEQPMIPSSFSANARDFVLKMLEKNPKRRLGGNHRDASEIKEHPFFNGINWQELRTKRRKAPYKPTLTAEDDVQNFSNEFTDQVPEDPECDAPPSRIRLFRGYTYVAPEHLEQMRRDNHCEIQYFNTGLQNIPCRPDDLELGTRTSNGAYGTCHFVVDSSTDLVFLAKIIPLSKFRPSEVDALISCALDTTNHKNIVSYHGTFREKCETWIVMEYLSGPELTASIRMDEDSCREIFLQLVMAVRHIHSKHFIHGDLKPENIMFENREDRTVKLIDFGSACYNNRFKSWKDKPRYTLDYAPPEMLADANLVTYSPAVDIYGLGATLYTMLVGHRPYRQNEDDVDHSAAAHHELRKRMRRGTFNQRSMRWESASPAFRHLVSWCLQRDPADRPTLSDILDSEWLQYGSNDPDVDIILPQQMVVDLSEDTMEQPTGGMFDDQQQLEFMHDKSAEDEGITLVSEPMDTTVATHESRRNAAAFSSVVAPTTDDEIVHERFDPAFEVQADFYGFDENAPPLPLPEEYYSELPLPEEDRQYIPPPPALIPVEPETTFRRPRTRQQRRTESQLVQPVSVATYEDSKASLRVLMQQLPPPGDNVVARIPKRTHRVVRTLPPTFGTTKREENFYGFSKTAISWRKTRASWRHFCLLINGVQQVLKVRFKKARRVYCLPHIKEEKLDHAYEKPLTFPRPKAQLKRTKREPKVPRPPTRVQPERARAMRQLYQFQ
B3: N-terminal domain of Jil-1 (residues 1-255), two-hybrid fusion in pACT2 (domain or fragment, UniProt Q9V3I5 1-255)
chain: MSRLQKQNYEILSGTSTSRLKNHQHPRESESLAYEEPDQMVRNHLNGQLVANGNGKTRKNSNSETMTNGKKSKLNTEGSGSGSGKTLNYNNNNNNNNSISATNGQYTNSSSKTTSASARDYTYRETISPPTPPSPPTTNVADIVCISDAESEDGRDPEREYYDQDMEEDEPNGIEIDESSSSLSKAKSNNAAAAAAAAAAAAAAAASKASSSTTPSYAMPTSNSTPLDLDNEAHQRDLEAVTDLKYYVKLYSDEA
B4: Jil-1 fragment residues 255-541, two-hybrid fusion in pACT2 (domain or fragment, UniProt Q9V3I5 255-541)
chain: AVSLNDFKIIRVLGTGAYGRVFLVRKLTRHDAGKLYAMKVLNKITVVQKRKTAEHTKTERVVLEAIQRNPFLVSLHYAFQSSSKLYLVLDFANGGELFTHLYHSENFEESRVRVYIAEVVLALEQLHQLGIIYRDIKLENILLDGEGHIVLSDFGLSKILTAENEYRAHSFCGTLEYMAPEIIRTGPPGHDSAVDWWSVGVLTFELLTGASPFATSDGQVQQSEISRRIQKEQPMIPSSFSANARDFVLKMLEKNPKRRLGGNHRDASEIKEHPFFNGINWQELRTK
B5: Jil-1 fragment residues 525-990, two-hybrid fusion in pACT2 (domain or fragment, UniProt Q9V3I5 525-990)
chain: KEHPFFNGINWQELRTKRRKAPYKPTLTAEDDVQNFSNEFTDQVPEDPECDAPPSRIRLFRGYTYVAPEHLEQMRRDNHCEIQYFNTGLQNIPCRPDDLELGTRTSNGAYGTCHFVVDSSTDLVFLAKIIPLSKFRPSEVDALISCALDTTNHKNIVSYHGTFREKCETWIVMEYLSGPELTASIRMDEDSCREIFLQLVMAVRHIHSKHFIHGDLKPENIMFENREDRTVKLIDFGSACYNNRFKSWKDKPRYTLDYAPPEMLADANLVTYSPAVDIYGLGATLYTMLVGHRPYRQNEDDVDHSAAAHHELRKRMRRGTFNQRSMRWESASPAFRHLVSWCLQRDPADRPTLSDILDSEWLQYGSNDPDVDIILPQQMVVDLSEDTMEQPTGGMFDDQQQLEFMHDKSAEDEGITLVSEPMDTTVATHESRRNAAAFSSVVAPTTDDEIVHERFDPAFEVQADFY

target: C-terminus fragment of dP75 including the IBD, two-hybrid fusion in pBTM116 (Drosophila); test: two-hybrid

Row | Binder | binding
1 | B1 | binds

target: Full-length dP75 (residues 1-475), two-hybrid fusion in pBTM116 (Drosophila); test: two-hybrid

Row | Binder | binding
2 | B2 | binds
3 | B1 | binds
4 | B3 | no binding
5 | B4 | no binding
6 | B5 | no binding
